Source: patent publication US9937161B2, “Combinatorial compositions and methods for treatment of melanoma” (THE GENERAL HOSPITAL CORPORATION, priority 2013, dated 2018)
At least one compound was matched to its structure with a doubt left.

System: A375P, MALME-3M and SK-MEL-5 melanoma cells
Experiment: OXPHOS gene mRNA by quantitative PCR
Type: cell-based
Settings: 1 μM, 24 h

For `CCCS(=O)(=O)Nc1ccc(F)c(C(=O)c2c[nH]c3ncc(-c4ccc(Cl)cc4)cc23)c1F` [vemurafenib], the “OXPHOS gene mRNAs” value was “induction of OXPHOS genes”.
